Results: PubChem BioAssay AID318 (DTP/NCI, 2004)
The list is a part of this screen's results and no random one: it gathers tests that were run many times, whatever their T/C, doses with no T/C, and many T/C values between a quarter and a half above the control. Further doses and runs are listed elsewhere. T/C: endpoint of the treated group in % of that of the vehicle group. Some doses have a count of surviving animals in place of a T/C: the source files T/C as zero there, which appears to mark a toxic dose or a test without result, not a measured value. Some doses without a T/C left all or most animals alive at the check, yet need not have been tolerated: the source hardly ever lists a survival T/C far under the control, and the zero likely stands for such cases as well. Survivors were counted at the toxicity check, usually on the fifth day, unless a day is given; later deaths do not show. Schedule codes are those of the source, taken here to give the interval after Q, in days (D) or hours (H), and the number of doses after X. For survival time, this PubChem deposit counts one and a half times the control or more as active, and values a quarter to a half above the control carry no call in these data; other NCI protocols may use other cut-offs. Some doses were run more than once; the values are given in rising order. Additions like (4×) count equal records among those shown. Starred links: 1 amine or outer side, 2 acyl side, 3 side chain; linkers in the order of their positions; H or OH if unused. Positions of bridges follow the written chain, without caps; N, C: chain ends. Non-standard residues stand in square brackets, D forms with d. Residues, ends and D or L forms follow the SMILES beside them. Chains are numbered I, II in the order given. Actinocin(1to9) = Cc1c2oc3c(C)ccc(C(=O)[*:2])c3nc-2c(C(=O)[*:1])c(N)c1=O; NMeV = CN[CH](C(=O)O)C(C)C; Aze = O=C(O)[CH]1CCN1; Sar = CNCC(=O)O

System: BDF1 mice, P815 leukemia ip, survival T/C
Experiment: NCI In Vivo Anticancer Drug Screen. Data for tumor model P815 Mast Cell Leukemia (Ascitic) (intraperitoneal) in B6D2F1 (BDF1) mice
Details: higher T/C = longer survival
Method: The antitumor activity of compounds was measured in mice bearing transplantable tumors. Survival or tumor size were measured and the results are expressed as the measurement made in the treated group (T) divided by the measurement made in the vehicle treated control group (C). The tumor model used in this assay is P815 Mast Cell Leukemia (Ascitic) (intraperitoneal) in B6D2F1 (BDF1) mice

[1] = T/C endpoint: survival time, mean or median, dose: 50.0 mg/kg/injection, schedule: Q01DX015 (ip), vehicle: carboxymethylcellulose (CMC)
[2] = T/C endpoint: survival time, mean or median, dose: 100.0 mg/kg/injection, schedule: Q01DX015 (ip), vehicle: carboxymethylcellulose (CMC)
[3] = T/C endpoint: survival time, mean or median, dose: 200.0 mg/kg/injection, schedule: Q01DX015 (ip), vehicle: carboxymethylcellulose (CMC)
[4] = T/C endpoint: survival time, mean or median, dose: 8.0 mg/kg/injection, schedule: Q01DX010 (ip), vehicle: saline
[5] = T/C endpoint: survival time, mean or median, dose: 16.0 mg/kg/injection, schedule: Q01DX010 (ip), vehicle: saline
[6] = T/C endpoint: survival time, mean or median, dose: 25.0 mg/kg/injection, schedule: Q01DX015 (ip), vehicle: carboxymethylcellulose (CMC)
[7] = T/C endpoint: survival time, mean or median, dose: 6.0 mg/kg/injection, schedule: Q01DX015 (ip), vehicle: carboxymethylcellulose (CMC)
[8] = T/C endpoint: survival time, mean or median, dose: 200.0 mg/kg/injection, schedule: Q01DX010 (ip), vehicle: saline
[9] = T/C endpoint: survival time, mean or median, dose: 250.0 mg/kg/injection, schedule: Q01DX010 (ip), vehicle: saline
[10] = T/C endpoint: survival time, mean or median, dose: 20.0 mg/kg/injection, schedule: Q01DX010 (ip), vehicle: saline

Structure (SMILES): CC1CN=C(c2ccc(NC(=O)c3cccc(C(=O)Nc4ccc(C5=NCC(C)N5)cc4)c3)cc2)N1 (stereo not drawn)
- T/C (T/C endpoint: survival time, mean or median, dose: 40.0 mg/kg/injection, schedule: Q01DX010 (ip), vehicle: saline): 125 % of control

Structure (SMILES): CC[n+]1c(-c2ccccc2)c2cc(N)ccc2c2ccc(N)cc21
- T/C (T/C endpoint: survival time, mean or median, dose: 0.5 mg/kg/injection, schedule: Q01DX015 (ip), vehicle: saline): 132 % of control
- T/C (T/C endpoint: survival time, mean or median, dose: 1.0 mg/kg/injection, schedule: Q01DX015 (ip), vehicle: saline): 141 % of control
- survivor count (T/C endpoint: survival time, mean or median, dose: 20.0 mg/kg/injection, schedule: Q01DX015 (ip), vehicle: saline): 10 of 10
- survivor count (T/C endpoint: survival time, mean or median, dose: 40.0 mg/kg/injection, schedule: Q01DX015 (ip), vehicle: saline): 10 of 10

Structure (SMILES): N#[N+]c1cnc([O-])[nH]c1=O
- T/C (T/C endpoint: survival time, mean or median, dose: 1.25 mg/kg/injection, schedule: Q01DX010 (ip), vehicle: saline): 138 % of control

Structure (SMILES): CC(=O)OCC1OC(n2cnc3c(=S)nc(N)[nH]c32)C(OC(C)=O)C1OC(C)=O (stereo not drawn)
- survivor count (T/C endpoint: survival time, mean or median, dose: 12.5 mg/kg/injection, schedule: Q01DX015 (ip), vehicle: other): 10 of 10
- survivor count (T/C endpoint: survival time, mean or median, dose: 25.0 mg/kg/injection, schedule: Q01DX015 (ip), vehicle: other): 10 of 10
- survivor count (T/C endpoint: survival time, mean or median, dose: 50.0 mg/kg/injection, schedule: Q01DX015 (ip), vehicle: other): 10 of 10
- survivor count (T/C endpoint: survival time, mean or median, dose: 100.0 mg/kg/injection, schedule: Q01DX015 (ip), vehicle: other): 10 of 10

Structure (SMILES): Cc1cc2nc3c(=O)[nH]c(=O)nc-3n(CC(O)C(O)C(O)C(O)CO)c2cc1C (stereo not drawn)
- survivor count [1]: 10 of 10
- survivor count [2]: 10 of 10
- survivor count [3]: 10 of 10
- survivor count (T/C endpoint: survival time, mean or median, dose: 400.0 mg/kg/injection, schedule: Q01DX015 (ip), vehicle: carboxymethylcellulose (CMC)): 9 of 10

Structure (SMILES): Nc1nc(=S)c2ncn(C3OC(CO)C(O)C3O)c2[nH]1 (stereo not drawn)
- T/C (T/C endpoint: survival time, mean or median, dose: 4.0 mg/kg/injection, schedule: Q01DX010 (ip), vehicle: saline): 144 % of control
- T/C [4]: 144 % of control
- T/C [5]: 133 % of control

Structure (SMILES): Clc1ccc2c(Cl)ncnc2c1
- survivor count [6]: 10 of 10
- survivor count [1]: 10 of 10
- survivor count [2]: 9 of 10
- survivor count [3]: 6 of 10

Structure (SMILES): O=C(O)CC(NC(=O)CP(=O)(O)O)C(=O)O (stereo not drawn)
- survivor count (T/C endpoint: median survival time, dose: 800.0 mg/kg/injection, schedule: Q04DX003 (ip), vehicle: saline): 8 of 8

Structure (SMILES): O=C(Nc1ccc(NC2=NCCN2)cc1)c1ccc(C(=O)Nc2ccc(NC3=NCCN3)cc2)cc1
- T/C [4]: 142 and 147 % of control
- survivor count [5]: 6 of 6

Structure (SMILES): COS(C)(=O)=O
- survivor count (T/C endpoint: survival time, mean or median, dose: 100.0 mg/kg/injection, schedule: Q01DX010 (ip), vehicle: saline): 5 of 6

Structure (SMILES): N[C@@H](Cc1ccc(N(CCCl)CCCl)cc1)C(=O)O
- survivor count (T/C endpoint: survival time, mean or median, dose: 4.0 mg/kg/injection, schedule: Q01DX015 (ip), vehicle: carboxymethylcellulose (CMC)): 10 of 10
- T/C [7]: 135 % of control
- survivor count [7]: 10 of 10
- survivor count (T/C endpoint: survival time, mean or median, dose: 8.0 mg/kg/injection, schedule: Q01DX015 (ip), vehicle: carboxymethylcellulose (CMC)): 10 of 10
- survivor count (T/C endpoint: survival time, mean or median, dose: 12.0 mg/kg/injection, schedule: Q01DX015 (ip), vehicle: carboxymethylcellulose (CMC)): 10 of 10

Structure (SMILES): Cc1c2oc3c(C)ccc(C(=O)NC4C(=O)NC(C(C)C)C(=O)N5CCCC5C(=O)N(C)CC(=O)N(C)C(C(C)C)C(=O)OC4C)c3nc-2c(C(=O)NC2C(=O)NC(C(C)C)C(=O)N3CCC3C(=O)N(C)CC(=O)N(C)C(C(C)C)C(=O)OC2C)c(N)c1=O (stereo not drawn) (I: TV[Aze][Sar][NMeV] / II: TVP[Sar][NMeV]; ester I:1-I:C, II:1-II:C; linker I:N-II:N via Actinocin(1to9); configuration not given here)
- T/C (T/C endpoint: median survival time, dose: 270.0 micrograms/kg/injection, schedule: Q04DX003 (ip), vehicle: saline + alcohol): 125 % of control
- T/C (T/C endpoint: median survival time, dose: 450.0 micrograms/kg/injection, schedule: Q04DX003 (ip), vehicle: saline + alcohol): 135 % of control
- T/C (T/C endpoint: median survival time, dose: 1250.0 micrograms/kg/injection, schedule: Q01DX001 (ip), vehicle: saline + alcohol): 134 % of control

Structure (SMILES): O=c1cnn(C2OC(CO)C(O)C2O)c(=O)[nH]1 (stereo not drawn)
- T/C [8]: 133 % of control
- T/C (T/C endpoint: survival time, mean or median, dose: 400.0 mg/kg/injection, schedule: Q01DX010 (ip), vehicle: saline): 133 % of control

Structure (SMILES): CC(=O)N(C)C
- survivor count [9]: 3 of 6

Structure (SMILES): CCCCNc1ncnc2c1cnn2C
- survivor count (T/C endpoint: survival time, mean or median, dose: 125.0 mg/kg/injection, schedule: Q01DX010 (ip), vehicle: saline): 6 of 6
- survivor count [9]: 0 of 6

Structure (SMILES): CN(C)/N=N/c1nc[nH]c1C(N)=O
- T/C [2]: 145 % of control
- T/C (T/C endpoint: survival time, mean or median, dose: 125.0 mg/kg/injection, schedule: Q01DX015 (ip), vehicle: carboxymethylcellulose (CMC)): 129 % of control

Structure (SMILES): NOCc1ccsn1
- survivor count (T/C endpoint: median survival time, dose: 180.0 mg/kg/injection, schedule: Q01DX010 (ip), vehicle: saline sonified): 4 of 6

Structure (SMILES): CC(CCC(C)OS(C)(=O)=O)OS(C)(=O)=O (stereo not drawn)
- T/C [5]: 127 % of control
- survivor count (T/C endpoint: survival time, mean or median, dose: 32.0 mg/kg/injection, schedule: Q01DX010 (ip), vehicle: saline): 6 of 6

Structure (SMILES): Oc1ccccc1C(Nc1nc2ccccc2s1)c1ccc2cccnc2c1O (stereo not drawn)
- survivor count (T/C endpoint: survival time, mean or median, dose: 500.0 mg/kg/injection, schedule: Q01DX015 (ip), vehicle: other): 9 of 10

Structure (SMILES): C(CC1CO1)C1CO1 (stereo not drawn)
- T/C (T/C endpoint: survival time, mean or median, dose: 27.0 mg/kg/injection, schedule: Q01DX015 (ip), vehicle: saline): 139 % of control
- survivor count (T/C endpoint: survival time, mean or median, dose: 90.0 mg/kg/injection, schedule: Q01DX015 (ip), vehicle: saline): 6 of 10

Structure (SMILES): O=C1C(NC(=O)C2CCCCC2)=C(N2CC2)C(=O)C(NC(=O)C2CCCCC2)=C1N1CC1
- survivor count (T/C endpoint: survival time, mean or median, dose: 25.0 mg/kg/injection, schedule: Q01DX010 (ip), vehicle: saline): 6 of 6
- survivor count [8]: 6 of 6

Structure (SMILES): S=P(N1CCOCC1)(N1CC1)N1CC1
- T/C (T/C endpoint: survival time, mean or median, dose: 5.0 mg/kg/injection, schedule: Q01DX010 (ip), vehicle: saline): 105, 107, 111 % of control (2×)
- T/C (T/C endpoint: survival time, mean or median, dose: 10.0 mg/kg/injection, schedule: Q01DX010 (ip), vehicle: saline): 110, 115, 116 % of control (2×)
- T/C [10]: 138, 144, 168 % of control
- survivor count [10]: 6 of 6

Structure (SMILES): CC(=O)OCC1OC(n2cnc3c(=S)nc[nH]c32)C(OC(C)=O)C1OC(C)=O (stereo not drawn)
- T/C [6]: 138 % of control
- survivor count [3]: 10 of 10

Structure (SMILES): COc1cc([C@@H]2c3cc4c(cc3[C@H](O)[C@H]3COC(=O)[C@@H]23)OCO4)cc(OC)c1OC
- survivor count (T/C endpoint: survival time, mean or median, dose: 80.0 mg/kg/injection, schedule: Q01DX015 (ip), vehicle: carboxymethylcellulose (CMC)): 10 of 10

Structure (SMILES): O=c1[nH]c(=O)n(C2CC(O)C(CO)O2)cc1F (stereo not drawn)
- T/C (T/C endpoint: survival time, mean or median, dose: 80.0 mg/kg/injection, schedule: Q01DX010 (ip), vehicle: saline): 144 % of control

Structure (SMILES): CN(C)[C@@H]1C(=O)C(C(N)=O)=C(O)[C@@]2(O)C(=O)C3=C(O)c4c(O)cccc4C[C@H]3C[C@@H]12
- T/C (T/C endpoint: survival time, mean or median, dose: 15.0 mg/kg/injection, schedule: Q01DX015 (ip), vehicle: alkali diluted with saline): 135 % of control
- survivor count (T/C endpoint: survival time, mean or median, dose: 60.0 mg/kg/injection, schedule: Q01DX015 (ip), vehicle: alkali diluted with saline): 10 of 10
- survivor count (T/C endpoint: survival time, mean or median, dose: 120.0 mg/kg/injection, schedule: Q01DX015 (ip), vehicle: alkali diluted with saline): 3 of 10

Structure (SMILES): C1CN1c1nc(N2CC2)nc(N2CC2)n1
- T/C (T/C endpoint: survival time, mean or median, dose: 0.5 mg/kg/injection, schedule: Q01DX010 (ip), vehicle: saline): 127 % of control
- survivor count (T/C endpoint: survival time, mean or median, dose: 1.0 mg/kg/injection, schedule: Q01DX010 (ip), vehicle: saline): 6 of 6
- T/C (T/C endpoint: survival time, mean or median, dose: 500.0 micrograms/kg/injection, schedule: Q01DX010 (ip), vehicle: saline): 144 % of control

Structure (SMILES): CC(=O)O[C@]1(C(C)=O)CC[C@H]2[C@@H]3C[C@H](C)C4=CC(=O)C=C[C@]4(C)[C@@]3(F)[C@@H](O)C[C@@]21C
- survivor count (T/C endpoint: survival time, mean or median, dose: 50.0 mg/kg/injection, schedule: Q01DX010 (sc), vehicle: steroid suspending solution): 5 of 6
